Values quoted from earlier work as cited in patent US20110104265A1, “COMPOSITIONS AND METHODS OF TARGETED NANOFORMULATIONS IN THE MANAGEMENT OF OSTEOPOROSIS” (priority 2009, published 2011).
Some entries share one result that the patent states for a list of compounds. At least one compound was matched to its structure with a doubt left.

The chains behind the UniProt entries cited, without tags or fusion partners. Residues count along the entry.
UniProt P05106, 27-788: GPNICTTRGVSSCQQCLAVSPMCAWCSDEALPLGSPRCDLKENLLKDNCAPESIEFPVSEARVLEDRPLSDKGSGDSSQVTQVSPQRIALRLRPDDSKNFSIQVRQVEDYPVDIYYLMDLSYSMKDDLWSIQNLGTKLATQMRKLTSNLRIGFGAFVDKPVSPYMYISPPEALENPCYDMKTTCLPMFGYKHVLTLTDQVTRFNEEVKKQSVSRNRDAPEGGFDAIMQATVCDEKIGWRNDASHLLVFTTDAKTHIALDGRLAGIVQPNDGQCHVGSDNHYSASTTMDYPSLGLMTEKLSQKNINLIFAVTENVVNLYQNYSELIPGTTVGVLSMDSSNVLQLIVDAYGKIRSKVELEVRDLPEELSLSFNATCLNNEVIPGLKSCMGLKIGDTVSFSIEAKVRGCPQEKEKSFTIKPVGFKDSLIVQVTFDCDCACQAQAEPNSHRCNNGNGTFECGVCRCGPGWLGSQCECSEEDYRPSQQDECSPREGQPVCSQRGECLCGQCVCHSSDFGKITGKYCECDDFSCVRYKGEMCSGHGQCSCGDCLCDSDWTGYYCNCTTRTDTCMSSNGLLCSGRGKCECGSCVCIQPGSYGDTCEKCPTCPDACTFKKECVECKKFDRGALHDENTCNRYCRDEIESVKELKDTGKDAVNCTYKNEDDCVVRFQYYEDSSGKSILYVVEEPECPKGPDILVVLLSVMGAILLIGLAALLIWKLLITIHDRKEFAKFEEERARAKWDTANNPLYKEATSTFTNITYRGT
UniProt P06756, 891-1048 partner limits assumed: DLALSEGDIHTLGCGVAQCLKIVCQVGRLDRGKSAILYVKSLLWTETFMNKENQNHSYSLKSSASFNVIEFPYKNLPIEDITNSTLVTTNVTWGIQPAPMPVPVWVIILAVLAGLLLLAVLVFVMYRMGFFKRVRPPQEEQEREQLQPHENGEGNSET
UniProt P06756, 31-889 limits assumed: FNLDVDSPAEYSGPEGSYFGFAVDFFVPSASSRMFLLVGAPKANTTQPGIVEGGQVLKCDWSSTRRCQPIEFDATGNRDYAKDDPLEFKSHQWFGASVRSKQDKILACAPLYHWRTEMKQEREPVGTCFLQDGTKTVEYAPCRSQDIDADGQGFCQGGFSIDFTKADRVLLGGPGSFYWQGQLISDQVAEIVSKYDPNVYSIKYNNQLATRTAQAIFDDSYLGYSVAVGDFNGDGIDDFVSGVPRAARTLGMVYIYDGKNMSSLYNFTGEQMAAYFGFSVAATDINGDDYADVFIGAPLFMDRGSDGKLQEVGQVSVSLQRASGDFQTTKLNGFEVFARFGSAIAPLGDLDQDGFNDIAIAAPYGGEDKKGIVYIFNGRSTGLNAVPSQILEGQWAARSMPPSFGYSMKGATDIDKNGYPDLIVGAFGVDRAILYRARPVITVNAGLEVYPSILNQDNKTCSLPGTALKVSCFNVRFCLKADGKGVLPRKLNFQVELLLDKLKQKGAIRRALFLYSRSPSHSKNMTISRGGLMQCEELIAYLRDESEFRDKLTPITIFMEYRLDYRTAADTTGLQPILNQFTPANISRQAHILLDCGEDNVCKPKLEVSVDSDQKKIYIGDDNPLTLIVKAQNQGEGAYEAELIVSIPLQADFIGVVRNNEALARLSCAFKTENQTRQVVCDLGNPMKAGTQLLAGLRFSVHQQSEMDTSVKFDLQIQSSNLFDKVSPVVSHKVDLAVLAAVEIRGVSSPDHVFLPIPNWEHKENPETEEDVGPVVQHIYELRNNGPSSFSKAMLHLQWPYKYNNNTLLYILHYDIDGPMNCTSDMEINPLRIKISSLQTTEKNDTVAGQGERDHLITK

Biological target: αvβ3 (Homo sapiens, UniProt P05106+P06756)
Conditions: potent αvβ3 ligand; one range stated jointly for SM256 or XT199; no method described

SMILES: Cc1cc(C)c(S(=O)(=O)N[C@@H](CNC(=O)c2ccc3c(cnn3CCCNc3ncc[nH]3)c2)C(=O)O)c(C)c1 [SM256]
- Ki: 0.001 to 0.04 µM
